This is an account of results in patent US20100144601A1 (Janssen / Centocor, published 2010).

Protein sequences, listed by entry. Tags and fused reporters are not part of them. Residues count along the entry.
UniProt P01375, residues 77-233: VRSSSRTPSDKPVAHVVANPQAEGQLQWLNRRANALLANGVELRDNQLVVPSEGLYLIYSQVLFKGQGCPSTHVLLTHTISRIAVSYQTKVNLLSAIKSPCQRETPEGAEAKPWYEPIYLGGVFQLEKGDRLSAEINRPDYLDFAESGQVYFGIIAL

Changes are numbered by the printed parent chain. No constants are given. Whether binding was seen depends on the method and setting. Some binding calls cover weakened binding; strength is not graded here.

In this test the target is T1, recombinant TNFα, biotinylated (human, UniProt P01375 77-233, biotinylated using sulfo-NHS-LC-Biotin (sites not given)).
T1 construct: human is stated in the abstract and claims; also called biotinylated TNFα; human TNFα
Put plainly: ELISA of lysates on biotinylated TNFα on streptavidin plate. The protocol:
Maxisorp plates (Nunc) were coated with 0.5 μg of streptavidin, washed with TBST, and bound to 100 ng of biotinylated TNFα or 200 ng of biotinylated human serum albumin before being blocked with Starting Block (Thermo Scientific). Clarified lysates diluted 1:1 in Starting Block were added to the plates and allowed to bind for 1 hour before being washed with TBST. Detection of bound Tencon was accomplished using an anti-HIS-HRP antibody (Qiagen).

B1: Clone No. 24 (designed binder)
chain: LPAPKNLVVSEVTEDSLRLSWNCTTTFFDSFLIQYQESEKVGEAINLTVPGSERSYDLTGLKPGTEYTVSIYGVCWSYYMSPLSAEFTT
As for B1, the binding entry is “binds”.

B2: Clone No. 52 (designed binder)
chain: LPAPKNLVVSEVTEDSLRLSWCMRNPIFDSFLIQYQESEKVGEAINLTVPGSERSYDLTGLKPGTEYTVSIYGVNLLRDSHPLSAEFTT
Turning to B2, the binding entry is recorded as “binds”.

B3: Clone No. 53 (designed binder)
chain: LPAPKNLVVSEVTEDSLRLSWTAKYWLFDSFLIQYQESEKVGEAINLTVPGSERSYDLTGLKPGTEYTVSIYGVRPIVLPNPLSAEFTT
B3: the binding entry is on record as “binds”.

B4: Clone No. 49 (designed binder)
chain: LPAPKNLVVSEVTEDSLRLSWIQPRFYFDSFLIQYQESEKVGEAINLTVPGSERSYDLTGLKPGTEYTVSIYGVHWGHNLTPLSAEFTT
With B4, the binding entry is on record as “binds”.

B5: Clone No. 100 (designed binder)
chain: LPAPKNLVVSEVTEDSLRLSWTGQQSRFDSFLIQYQESEKVGEAINLTVPGSERSYDLTGLKPGTEYTVSIYGVNSRTEILPLSAEFTT
As to B5, the binding result was “binds”.

B6: Clone No. 28 (designed binder)
chain: B5 chain with T22E, G23C, Q24N, Q25P, S26C, N75G, R77L, E79I, I80L, L81Q
Turning to B6, the binding result is “binds”.

B7: Clone No. 19 (designed binder)
chain: B5 chain with T22N, G23K, Q24L, Q25D, R27G, N75Y, S76N, R77S, I80L, L81G
With B7, the binding entry is “binds”.

B8: Clone No. 20 (designed binder)
chain: B5 chain with T22E, G23S, Q25A, R27Y, N75G, S76Q, R77L, T78A, E79V, L81H
As to B8, the binding entry is reported as “binds”.

B9: Clone No. 27 (designed binder)
chain: LPAPKNLVVSEVTEDSLRLSWCLAVSPFDSFLIQYQESEKVGEAINLTVPGSERSYDLTGLKPGTEYTVSIYGVCTTVTYHPLSAEFTT
Take B9: the binding entry was “binds”.

B10: Clone No. 23 (designed binder)
chain: LPAPKNLVVSEVTEDSLRLSWTLYCRYFDSFLIQYQESEKVGEAINLTVPGSERSYDLTGLKPGTEYTVSIYGVTPPCGYAPLSAEFTT
As to B10, the binding result is “binds”.

B11: Clone No. 104 (designed binder)
chain: LPAPKNLVVSEVTEDSLRLSWSVLIWQFDSFLIQYQESEKVGEAINLTVPGSERSYDLTGLKPGTEYTVSIYGVFDGYQCYPLSAEFTT
For B11, the binding result is “binds”.

B12: Clone No. 102 (designed binder)
chain: LPAPKNLVVSEVTEDSLRLSWGSRREVFDSFLIQYQESEKVGEAINLTVPGSERSYDLTGLKPGTEYTVSIYGVFTSPMATPLSAEFTT
As for B12, the binding result was “binds”.

B13: Clone No. 51 (designed binder)
chain: B12 chain with G22R, S23F, R24P, R25A, E26F, F75P, P78C, M79A, A80Y, T81N
In the case of B13, the binding entry is “binds”.

B14: Clone No. 16 (designed binder)
chain: LPAPKNLVVSEVTEDSLRLSWKTRYCFFDSFLIQYQESEKVGEAINLTVPGSERSYDLTGLKPGTEYTVSIYGVANLFYLRPLSAEFTT
B14: the binding result is reported as “binds”.

B15: Clone No. 25 (designed binder)
chain: B14 chain with K22Q, T23C, R24S, Y25V, F27R, A75G, N76G, F78T, Y79V, R81Q
Regarding B15, the binding entry was “binds”.

B16: Clone No. 21 (designed binder)
chain: B14 chain with K22N, T23A, R24P, Y25L, C26L, F27W, A75G, F78S, Y79V, R81Q
Take B16: the binding result is listed as “binds”.

B17: Clone No. 18 (designed binder)
chain: B14 chain with K22E, T23S, Y25Q, C26A, F27Y, A75G, F78T, R81H
For B17, the binding result is given as “binds”.

B18: Clone No. 38 (designed binder)
chain: B14 chain with K22S, T23A, R24W, Y25S, C26F, F27Y, A75G, F78T, R81H
Regarding B18, the binding entry is listed as “binds”.

B19: Clone No. 37 (designed binder)
chain: B14 chain with K22E, T23S, Y25Q, C26T, F27Y, A75G, F78T, R81H
For B19, the binding entry was “binds”.

B20: Clone No. 22 (designed binder)
chain: LPAPKNLVVSEVTEDSLRLSWDPWYYYFDSFLIQYQESEKVGEAINLTVSGSERSYDLTGLKPGTEYTVSIYGVTRNYVLTPLSAEFTT
For the molecule B20, the binding entry is listed as “binds”.

B21: Clone No. 41 (designed binder)
chain: B20 chain with D22S, P23A, Y25S, Y26F, S50P, T75G, R76K, V79T, L80F, T81R
As for B21, the binding result is “binds”.

B22: Clone No. 46 (designed binder)
chain: B20 chain with D22H, Y25W, Y26F, Y27L, S50P, T75G, R76S, V79M, L80F, T81H
Regarding B22, the binding entry is “binds”.

B23: Clone No. 47 (designed binder)
chain: B20 chain with D22H, Y25W, Y26F, Y27L, S50P, T75G, V79L, L80M, T81S
In the case of B23, the binding result was “binds”.

B24: Clone No. 30 (designed binder)
chain: B20 chain with D22S, P23A, Y25S, Y26F, S50P, T75G, V79T, L80F, T81R
As for B24, the binding entry is given as “binds”.

B25: Clone No. 26 (designed binder)
chain: B20 chain with P23S, Y26P, Y27S, S50P, T75R, R76P, Y78F, V79F, L80M, T81G
For B25, the binding entry is recorded as “binds”.

B26: Clone No. 48 (designed binder)
chain: B3 chain with R75G, P76R, I77N, V78Y, P80M, N81S
B26: the binding result is listed as “binds”.

B27: Clone No. 40 (designed binder)
chain: B20 chain with D22S, P23A, Y25P, Y26F, S50P, T75G, R76K, V79T, L80F, T81R
B27: the binding entry is given as “binds”.

B28: Clone No. 33 (designed binder)
chain: LPAPKNLVVSEVTEDSLRLSWETHDTNFDSFLIQYQESEKVGEAINLTVPGSERSYDLTGLKPGTEYTVSIYGVGQLDDNLPLSAEFTT
For the molecule B28, the binding result is recorded as “binds”.

B29: Clone No. 29 (designed binder)
chain: LPAPKNLVVSEVTEDSLPLSWSCSFECFDSFLIQYQESEKVGEAINLTVPGSERSYDLTGLKPGTEYTVSIYGVDRRRPMRPLSAEFTT
B29: the binding entry was “binds”.

B30: Clone No. 103 (designed binder)
chain: LPAPKNLVVSEVTEDSLRLSWSRWKIGFDSFLIQYQESEKVGEAINLTVPGSERSYDLTGLKPGTEYTVSIYGVTMPDCMTPLSAEFTT
Consider B30, for which the binding result was “binds”.

B31: Clone No. 39 (designed binder)
chain: LPAPKNLVVSEVTEDSLRLSWESRQAYFDSFLIQYQESEKVGEAINLTVPGSERSYDLTGLKPGTEYTVSIYGVGKNYTFRPLSAEFTT
Take B31: the binding entry is on record as “binds”.

B32: Clone No. 45 (designed binder)
chain: B3 chain with R75G, P76S, I77N, V78Y, L79M, P80F, N81H
With B32, the binding entry is given as “binds”.

B33: Clone No. 54 (designed binder)
chain: B31 chain with S23M, R24K, Q25F, A26L, Y27H, G75S, K76S
With B33, the binding entry is “binds”.

B34: Clone No. 50 (designed binder)
chain: LPAPKNLVVSEVTEDSLRLSWRQRYMVFDSFLIQYQESEKVGEAINLTVPGSERSYDLTGLKPGTEYTVSIYGVLIAMLVSPLSAEFTT
Regarding B34, the binding result is “binds”.

B35: Clone No. 101 (designed binder)
chain: LPAPKNLVVSEVTEDSLRLSWLVLGAMFDSFLIQYQESEKVGEAINLTVPGSERSYDLTGLKPGTEYTVSIYGVMLKCPARPLSAEFTT
Take B35: the binding result is “binds”.

B36: Clone No. 17 (designed binder)
chain: LPAPKNLVVSEVTEDSLRLSWSSSHGHFDSFLIQYQESEKVGEAINLTVPGSERSYDLTGLKPGTEYTVSIYGVGALSVIHPLSAEFTT
As for B36, the binding entry was “binds”.

B37: Clone No. 43 (designed binder)
chain: B36 chain with S22E, S24R, H25A, G26S, H27Y, A76Q, S78A
As for B37, the binding result is “binds”.

B38: Clone No. 31 (designed binder)
chain: B36 chain with S22L, S23Q, S24H, H25C, G26A, H27S, A76Q, S78A
Take B38: the binding entry is listed as “binds”.

B39: Clone No. 32 (designed binder)
chain: B31 chain with R24H, Q25G, A26S, K76Q, N77L, Y78A, T79V, F80I
On to B39, for which the binding result is given as “binds”.

B40: Clone No. 42 (designed binder)
chain: B31 chain with E22S, S23A, R24W, Q25S, A26F, K76N, T79V, R81K
For B40, the binding entry was “binds”.

B41: Clone No. 44 (designed binder)
chain: B3 chain with R75G, P76Q, I77L, V78A, L79V, P80I, N81H
As for B41, the binding entry is on record as “binds”.

B42: Clone No. 55 (designed binder)
chain: LPAPKNLVVSEVTEDSLRLSWREKRLRFDSFLIQYQESEKVGEAINLTVPGSERSYDLTGLKPGTEYTVSIYGVVPTSALSPLSAEFTT
For the molecule B42, the binding entry was “binds”.
